Assay results taken from PubChem BioAssay AID1259415 (National Center for Advancing Translational Sciences (NCATS), 2018).
Out of some 410,000 compounds screened, about 18,000 (4.4%) were called active. The inconclusive results got no clear call from the source; some entries with a clear call stand among them for comparison. Cut-off read from the data, not from the text of the source: active = activity change below about -60%; inconclusive = no clear call, values can overlap the other calls; inactive = above about -39%.

assay: qHTS Assay for inhibitors of the human cytomegalovirus (HCMV); settings: HFF cells, HCMV-luciferase reporter, 72 h; at 57.5 µM; active compounds read low
Outline: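 Luciferase read-out from HCMV-luciferase-infected HFFs (MOI 1 PFU/cell) 72 h post infection at 37C; compounds added after 16 h cell attachment; activity normalized between buffer-only basal and Salinomycin (10uM) inhibitor controls.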
% is set by controls: 0 for no effect and ±100 for the full control effect.

Row | SMILES | activity change, negative = inhibition
1 | COc1ccc(S(=O)(=O)N2CCCCC2)cc1NC(=O)CNc1ccccc1C(C)=O | inconclusive: -52.7%
2 | O=C(/C=C/c1cccs1)c1cc(Cl)ccc1OC(=O)N1CCOCC1 | active: -92.8%
3 | CCOc1cc(N2CCOCC2)c(OCC)cc1NC(=O)c1cccc(N(C)C)c1 | inconclusive: -58.8%
4 | COc1cc2ccccc2cc1C(=O)N1CCN(c2nc3c(C)cc(C)cc3s2)CC1 | inactive: 6.96%
5 | O=C(O)c1nn(-c2cccc(Cl)c2)c(=O)cc1O | inconclusive: -42.9%
6 | CN1C/C(=C/c2cccnc2)C(=O)/C(=C/c2cccnc2)C1 | active: -91.6%
7 | O=C(Nc1ccccc1N1CCCC1)c1ccc([N+](=O)[O-])o1 | active: -70.7%
8 | Cc1cc(N2CC(C(=O)NCc3cccnc3)CC2=O)ccc1C(C)C (stereo not drawn) | inactive: -33.6%
9 | CCC(=O)Nc1cc(C(C)(C)C)ccc1C(C)=O | inactive: -9.83%
10 | Cc1cc(C)c(S(=O)(=O)N2CCN(c3ccc([N+](=O)[O-])c(NCc4ccco4)c3)CC2)c(C)c1 | inconclusive: -56.8%
11 | CCCc1nnc(N2C(=O)c3oc4ccc(F)cc4c(=O)c3C2c2ccc(C(=O)OC)cc2)s1 (stereo not drawn) | inactive: -16.8%
12 | CC(C)c1ccc(NC(=O)c2ccc(F)c(S(=O)(=O)N3CCCC3)c2)cc1 | inconclusive: -40.8%
13 | COCc1cc(=O)[nH]c(/N=C(\N)Nc2ccc(Cl)c(Cl)c2)n1 | inconclusive: -40.5%
14 | COc1ccc(S(=O)(=O)N2CCC(C(=O)c3ccc4c(c3)OCCO4)CC2)cc1 | inconclusive: -47.6%
15 | O=C1[C@H]2[C@@H](c3ccc(C(F)(F)F)cc3)N[C@]3(CCCN(CC4CCCCC4)C3=O)[C@H]2C(=O)N1Cc1ccccc1 | inconclusive: -55.1%
16 | c1ccc(CNc2ncnc3sc4c(c23)CCCC4)nc1 | inconclusive: -47.8%
17 | CCN(CC)S(=O)(=O)c1ccc(Cl)c(NC(=O)COC(=O)c2c(C)noc2C)c1 | inconclusive: -48%
18 | CCCCc1ccc(NC(=S)NCc2ccccc2OC)cc1 | inconclusive: -45.1%
19 | CC(C)c1cccc(C(C)C)c1NC(=O)CN1CCCC1 | inconclusive: -48.8%
20 | COc1ccc(NC(=O)CSc2nc3ccccc3c(=O)n2CCCN2CCOCC2)c(OC)c1 | inconclusive: -58.2%
21 | CCCc1ccc(S(=O)(=O)N(C)S(=O)(=O)c2ccc(F)cc2)cc1 | inconclusive: -53.7%
22 | CCC(C)NC(=O)[C@H]1N2C(=O)c3ccccc3C2SC1(C)C (stereo partly drawn) | inactive: 51.2%
23 | COc1cccc(Nc2nc3cc(C)ccc3cc2C)c1 | inconclusive: -45.4%

Some of the entries so far, as tab-separated lines:
Row	SMILES	activity change, negative = inhibition
2	O=C(/C=C/c1cccs1)c1cc(Cl)ccc1OC(=O)N1CCOCC1	active: -92.8%
3	CCOc1cc(N2CCOCC2)c(OCC)cc1NC(=O)c1cccc(N(C)C)c1	inconclusive: -58.8%
9	CCC(=O)Nc1cc(C(C)(C)C)ccc1C(C)=O	inactive: -9.83%
16	c1ccc(CNc2ncnc3sc4c(c23)CCCC4)nc1	inconclusive: -47.8%
20	COc1ccc(NC(=O)CSc2nc3ccccc3c(=O)n2CCCN2CCOCC2)c(OC)c1	inconclusive: -58.2%
